Data source: PubChem BioAssay AID1259272 (Sanger Institute, 2017)

Test: 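Find kinases needed for SW1116 growth and partners for drug combinations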 (primary screen)
System: SW1116 human colorectal cancer cells
Knock-down reagent: siRNA pool against human genes
Challenge: anchor drugs BYL719 (1 µM), cetuximab (5 µg/ml) or trametinib (10 nM), or DMSO vehicle; exposure length not given
Measurement: 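Replicate-averaged viability versus control-pool wells, with a robust z-score for siRNA alone and a per-drug synergy score (BYL719, cetuximab, trametinib)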
Scale: viability z-score, no drug: higher = more cells remaining; strongly negative means essential gene
Call rule: 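a robust z-score under -3 with siRNA and no drug marks the gene essential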
Calls: active = essential (knock-down alone); inactive = no change
Shown is a random part of 794 reagents tested. 7 of all reagents (0.88%) were called active. 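Essential calls reflect knock-down without drug only, not synergy with drugs; drug exposure length not given.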 Entries without a mark were called inactive. The numbers tell different reagents against one gene apart. Not all columns of the deposit are shown. No sequences are given here. The record does not give: the amount of reagent, the time to read-out.

After knock-down of ACO1 (aconitase 1), the record shows viability z-score, no drug -1.8. TYRO3 (TYRO3 protein tyrosine kinase) showed viability z-score, no drug -0.774. For ILK (integrin linked kinase) #1, the entry reads viability z-score, no drug 0.842. With knock-down of ILK (integrin linked kinase) #2, the record shows viability z-score, no drug 0.656. STK4 (serine/threonine kinase 4) showed viability z-score, no drug 0.842. After knock-down of AKT3 (AKT serine/threonine kinase 3), the screen gave viability z-score, no drug -0.488.

TAF1L (TATA-box binding protein associated factor 1 like) scored viability z-score, no drug -0.191. Silencing of RAF1 (Raf-1 proto-oncogene, serine/threonine kinase) resulted in: viability z-score, no drug 0.842. CKS1B (CDC28 protein kinase regulatory subunit 1B) showed viability z-score, no drug 0.519. Against OBSCN, the values are viability z-score, no drug 0.842. With knock-down of MAP2K3 (mitogen-activated protein kinase kinase 3) the results were viability z-score, no drug -0.896. Against PDIK1L (PDLIM1 interacting kinase 1 like), the entry reads viability z-score, no drug 0.613.

Silencing of CDC7 (cell division cycle 7) came out at: viability z-score, no drug -3.79 (active). For NME2 (NME/NM23 nucleoside diphosphate kinase 2) the deposit lists viability z-score, no drug 0.842. MAP2K5 (mitogen-activated protein kinase kinase 5) scored viability z-score, no drug 0.0662. Silencing of PRKAA1 (protein kinase AMP-activated catalytic subunit alpha 1) gave: viability z-score, no drug 0.842. Depletion of TRIO (trio Rho guanine nucleotide exchange factor) gave: viability z-score, no drug 0.431. Silencing of ERBB2 (erb-b2 receptor tyrosine kinase 2) resulted in: viability z-score, no drug 0.842.

For EPHA10 (EPH receptor A10) the deposit lists viability z-score, no drug -0.76.

Part of the list above, set out differently:
{"Target gene":"PRKAA1 (protein kinase AMP-activated catalytic subunit alpha 1)","reagent":1,"viability z-score, no drug":0.842}
{"Target gene":"TRIO (trio Rho guanine nucleotide exchange factor)","reagent":1,"viability z-score, no drug":0.431}
